Results are given in words; binding and its absence hold for the method and conditions named. In cells and extracts the contact can be indirect. Some entries that bind do so weakly or less than the wild type.
Target: Flag-tagged full-length MASP-2 (human) (UniProt O00187)
Experiment: co-IP

Protein sequences, listed by entry. Tags and fused reporters are not part of them. Residues count along the entry.
UniProt O00187, 16-686: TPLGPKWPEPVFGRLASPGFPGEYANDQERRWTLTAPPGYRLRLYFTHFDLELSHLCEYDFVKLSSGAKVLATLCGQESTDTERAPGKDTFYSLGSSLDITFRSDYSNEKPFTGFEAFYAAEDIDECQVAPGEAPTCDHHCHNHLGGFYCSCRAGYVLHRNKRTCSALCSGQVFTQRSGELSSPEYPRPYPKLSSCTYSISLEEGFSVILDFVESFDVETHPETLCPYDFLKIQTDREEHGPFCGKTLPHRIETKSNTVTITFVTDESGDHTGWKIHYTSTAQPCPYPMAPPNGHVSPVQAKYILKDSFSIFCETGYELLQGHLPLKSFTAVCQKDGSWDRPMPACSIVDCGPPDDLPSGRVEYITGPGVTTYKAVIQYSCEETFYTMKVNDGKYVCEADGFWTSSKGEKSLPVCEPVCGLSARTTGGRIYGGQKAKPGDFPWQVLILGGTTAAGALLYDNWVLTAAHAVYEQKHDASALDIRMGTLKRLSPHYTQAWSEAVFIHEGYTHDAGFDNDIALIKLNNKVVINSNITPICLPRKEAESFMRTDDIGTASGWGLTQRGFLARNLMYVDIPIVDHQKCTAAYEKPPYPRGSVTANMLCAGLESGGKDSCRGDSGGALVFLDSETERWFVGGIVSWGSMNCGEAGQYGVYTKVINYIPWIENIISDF

With “GFP-tagged N-terminal domain (residues 1-175) of the SARS-CoV N protein (from UniProt P59595 1-175) (domain or fragment)” the binding was “binds”.

— paper doi:10.1101/2020.03.29.20041962
